Data published in patent US20030004092A1.
These are yes or no findings as the source states them, for the method shown.

Key:
[1] = molecular target: Mxi1 activation domain fusion protein (pJG4-5 plasmid); test: yeast two-hybrid, lacZ reporter (leu- not determined)
[2] = molecular target: Max activation domain fusion protein (pJG4-5 plasmid); test: as above

binding [1]: no binding
binding [2]: no binding
B1: LexA/cdr2^65-140 bait construct (protein, not shown: large carriers)
chain: MNEQHAKVYEQLDVTARELEETNQKLVADSKASQQKILSLTETIECLQTNIDHLQSQVEELKSSGQGRRSPGKCDQ
